A: 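Whole-cell assay for inhibitors of Mycobacterium tuberculosis growth, labelled Cornell in the record; the read-out is not stated. The concentration is filed as 10 mM, unlikely as a test dose, so the dose is not known. Higher means stronger inhibition (inferred from two other growth screens of the library). Size under these conditions: about 53,000 compounds, about 900 of them at 50% or above in at least one test.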
B: 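Assay on Mycobacterium tuberculosis, filed only as a heat shock assay from Cornell; the read-out is not stated. The concentration is filed as 10 mM, unlikely as a test dose, so the dose is not known. Direction is inferred from retests: higher values go with stronger inhibition. Of about 69,000 compounds tested this way, about 930 (1.4%) reached 50% or more in at least one test.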

Values are the deposited “Percent Effect”, in %.
The controls that fix the scale are not given in the record; negative values are as filed.
The compounds are a random part of those screened.
A dash means the value is not listed here; it may have been measured.

structure,A,B
Cc1cc(S(=O)(=O)NCC[S+](C)[O-])c(F)cc1F (stereo not shown),0.2668,9.083
CCNc1cc2c(nn1)CCN(C(=O)c1nccnc1N)C2,-,-19.84
O=C(CNC(=O)C1CCCC1)NCc1cnn(-c2ccc(F)cc2F)c1,-,-6.955
CC1CN(C)CCN1C(=O)c1ccn(-c2ccccc2)n1 (stereo not shown),-30.05,-11.7
CC(NC(=O)NCCNc1cccc(F)c1C#N)c1nccs1 (stereo not shown),-,-20.87
CCOCCN1CCN(CC(O)c2ccc(OC)cc2)CC1 (stereo not shown),-38.73,3.355
Cc1ccc(C(=O)NCc2ccnc(N3CCN(C)CC3)c2)cn1,12.05,6.831
Cc1ncsc1CCN(C)C(=O)CN1CCCCCC1=O,17.47,-2.957
Cc1ccnc(OCC(=O)N2CCCC2)n1,5.105,8.635
COC1CC2(CCN(Cc3nccn3C)CC2)C1.O=C(O)C(F)(F)F,6.427,-17.4
CC(c1cccnc1)N(C)Cc1csc(-c2ccccn2)n1 (stereo not shown),-10.47,9.642
CCCNCc1cc2c(C)cc(C)cc2n2c(=O)n(C)nc12,26.29,6.227
CCC(COC)NC(=O)N1CCC(n2ccc(C(F)(F)F)n2)CC1 (stereo not shown),17.67,-15.49
O=C(O)C(F)(F)F.[H][C@@]12CCN(C(=O)c3ccco3)C[C@]1([H])[C@@H](CN(C)C)OC2,9.382,4.122
CC(C)=CCN1CC2(CCN(C(=O)CCn3ccnc3C)CC2)CC1=O,13.7,-19.98
Cc1ncsc1CN1C[C@H](NC(=O)C2CCOCC2)[C@@H](C(C)C)C1,8.593,10.38
Cc1cccc(C(=O)N2CCn3cnc(COCC4CC4)c3C2)c1,-21.57,29.98
CCC(C)N(Cc1cccnc1)C(=O)c1ncccc1O (stereo not shown),12.09,-16.57
Cc1ccsc1-c1nc(CN(C)Cc2noc(C(C)C)n2)c(C)o1,29.81,-5.504
CN(Cc1nc(C2CC2)no1)C1CCS(=O)(=O)C1 (stereo not shown),-,-124.1
N#CCCN(CCC#N)Cc1ccc(Br)c2cccnc12,25.33,-11.06
CN1N=C(C(=O)N2CCCN(c3ncccc3C#N)CC2)CCC1=O,25.28,4.173
O=C(O)C1(n2ccc(-c3ccco3)n2)CCN(Cc2ccsc2)CC1,14.88,-2.536
COc1ccc(C(C#N)NC(=O)Cc2ccc(F)c(F)c2)c(OC)c1 (stereo not shown),-,8.022
COc1ccccc1C1(CNc2cn[nH]c(=O)c2Cl)CCOCC1,-,-2.68
COc1ccccc1CC(NC(=O)N1CCOCC1)C(C)C (stereo not shown),27.29,0.02355
Cc1ccc(CN2CCC(Cc3nnc(CO)n3C)CC2)cc1C,-,-6.38
OC1CCN(C2CCN(c3ccc(Cn4ccnc4)cn3)CC2)CC1,9.495,13.23
CCn1ncc(NC(=O)CCn2ncc3c(Cl)cccc32)c1C,-,5.366
O=C(O)C(F)(F)F.[H][C@@]12C[C@H](C(=O)N3CCCO3)CN(CCc3ccccc3)[C@]1([H])CCO2,9.694,-5.073
COCC(=O)N1CCC(c2cc3n(n2)[C@@H](C(F)(F)F)C[C@@H](C)N3)CC1,-48.53,7.29
COc1ccc(-c2cc(C3(O)CCCC3)on2)cc1,-4.709,-8.593
CSCC(C)(O)CNC(=O)c1cc(Cl)ccc1Cl (stereo not shown),22.43,1.287
CCc1nnc2n1CCN(C(=O)c1cc(Cl)c[nH]1)C2,-,9.107
CC(O)c1cn(Cc2ccc(F)cc2)nn1 (stereo not shown),28.77,12.69
O=C1CC2(CCN(Cc3cccs3)C2)CN1c1cccc(F)c1 (stereo not shown),10.67,17.96
CCn1cc(CN2CCCN(C3Cc4ccccc4C3)CC2)cn1,40.75,-4.885
CC(C)n1ncc2cc(NC(=O)N3CCC(N4CCCC4)C3)cnc21 (stereo not shown),18.34,1.589
CCNC(=O)NC(=O)C(C)N(C)CCOc1ccccc1C (stereo not shown),-25.9,-34.86
COCCO[C@H]1CCN(C(=O)c2ccno2)[C@H]1Cc1ccncc1.O=C(O)C(F)(F)F,-44.1,1.616
Cc1nc(CNCC(C)c2nc3ccccc3o2)cs1 (stereo not shown),-,-10.3
c1ccc2c(Cc3nnc([C@H]4CCN(C5CCOCC5)C4)o3)c[nH]c2c1,14.33,-33.44
[H][C@]12CC[C@]([H])(CN(c3ncccn3)C1)N(Cc1ccc(NC(C)=O)cc1)C2,-3.971,8.779
CC(C)c1nnc2n1CCN(Cc1cccc3c1OCCO3)C2,-14.54,-35.55
CCc1nccn1C1CCCN(C(=O)c2cc(C3CC3)on2)C1 (stereo not shown),-10.1,-14.22
CCN1Cc2c(C(=O)NC(C)C(C)C)ncn2-c2ccccc2S1(=O)=O (stereo not shown),-32.04,-22.42
Cc1nc(-c2noc3ccc(C(=O)NCCN4CCOCC4)cc23)cs1,20.29,-27.65
CC(C)CN1C(=O)CC(N2CCN(c3ccc(F)cc3)CC2)C1=O (stereo not shown),12.43,-4.278
CC(C)N(Cc1ccccn1)Cc1nc2c(cnn2C)c(=O)[nH]1,-,66.99
Cn1c(CCNc2nccnc2C#N)nc2ccc(F)cc21,2.399,3.926
Cc1noc(C)c1CN1CCc2ncc(Cn3cccn3)n2CC1.O=C(O)C(F)(F)F,17.14,-31.71
O=C(NCCc1ccccn1)C1=NN(c2ccccc2)C(=O)CN1,8.56,24.51
CN(C)C(=O)CN1CC=C(c2cnn(Cc3ccccc3)c2)CC1,-,3.139
CC(C)n1ccnc1C1CCN(C(=O)N2CCCC2)CC1,4.984,-14.2
CC(=O)N1CCCN(C(=O)c2cnc(OC(C)C)c(Cl)c2)CC1,17.08,-20.85
COc1ncccc1CNCc1c(C)nn(C)c1N1CCOCC1,-,12.4
CCn1ccnc1CN(C)Cc1nc(Cc2ccccc2F)no1,17.02,-11.16
COCc1nc2cc(NCc3ccc(C)o3)ccc2o1,107.3,60.09
COc1ccc(NC(=O)C(c2cccc(F)c2)N2CCOCC2)cc1 (stereo not shown),3.109,-16.5
CN1CCN(C2CCN(C(=O)CCC3CCCC3)CC2)CC1.O=C(O)C(=O)O,0.1192,-5.088
CCC(CC)(CNC(=O)OC(C)(C)C)NC(=O)C1CCCO1 (stereo not shown),-,-11.18
c1ccc(CCc2n[nH]c(CCN3CCCCC3)n2)cc1,-,2.587
O=C(O)C(F)(F)F.O=C(O)C(F)(F)F.O=C(O)C(F)(F)F.c1ccc(CN2Cc3[nH]nc(COc4cccnc4)c3C2)nc1,-23.44,2.13

Some entries from above, unchanged:

structure	A	B
Cc1ncsc1CCN(C)C(=O)CN1CCCCCC1=O	17.47	-2.957
COc1ccc(NC(=O)C(c2cccc(F)c2)N2CCOCC2)cc1 (stereo not shown)	3.109	-16.5
N#CCCN(CCC#N)Cc1ccc(Br)c2cccnc12	25.33	-11.06
[H][C@]12CC[C@]([H])(CN(c3ncccn3)C1)N(Cc1ccc(NC(C)=O)cc1)C2	-3.971	8.779

The values are deposited in ChEMBL (CHEMBL3988442, “University of Dundee, Small-Polar-MMV Screening Library” (2021)).